According to PubChem BioAssay AID493014 (National Center for Advancing Translational Sciences (NCATS), 2011):
Out of some 340,000 compounds screened, about 170 (0.05%) were called active. The inconclusive results got no clear call from the source; some entries with a clear call stand among them for comparison. Calls follow the shape of the dose curve; as a rule, active = well fitted inhibition curve with a large enough effect in the signal ratio, with a control signal flat (not every such curve was filed as active); inconclusive = small, poorly fitted or top-dose-only effect, or effect the other way, or a change in a side signal; inactive = flat fitted curve, though single readings scatter; the % refers to the signal ratio. A potency beside an inconclusive call is a rough fit, not a confirmed value.

Assay: qHTS Assay to Find Inhibitors of Chronic Active B-Cell Receptor Signaling;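 as to activity change, negative = inhibition: plate controls were basal doxycycline-induced cells for no effect and cells given 10 µM MG132 for full effect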
Conditions: ABC-DLBCL IkBa-CBG/CBR reporter, luminescence ratio (green luciferase fused to IkBa over red control in TMD8 lymphoma cells), 4 h; activity change, negative = inhibition: at 46.1 µM (top of the series)
Summary of the method: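 TMD8 human ABC-DLBCL cells with doxycycline-inducible IκBα–green luciferase fusion and unfused red luciferase, in 0.5% FBS medium; compounds up to 46 uM, 4 h at 37C. Green/red luminescence ratio, filter-overlap corrected, fitted to concentration-response curves.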
Potency is read from the fitted curve at half-maximal effect.

SMILES | activity change, negative = inhibition | Potency
COc1ccc(CN2CCN(Cc3ccc(C(F)(F)F)cc3)CC2)cc1 | inactive: -1.13% | –
Cc1oc(C(N)=O)cc1COc1ccc(C(N)=O)cc1 | inconclusive: 18.2% | –
Cc1cc(C)c2cc(C=O)c(Cl)nc2c1 | – | inconclusive: 3.98 µM [falling, full curve, poor fit]
Cc1cccc(-c2nnc3sc(-c4ccccc4)nn23)c1 | inactive: 4.99% | –
COc1ccc(N(Cc2cc(=O)[nH]c3ccccc23)C(=O)c2ccco2)cc1 | – | inconclusive: 22.4 µM [falling, single point]
N#Cc1cc2cc3c(cc2nc1NCCNC(=S)NCCCN1CCOCC1)OCO3 | inconclusive: 2.85% | –
O=C1c2ccccc2C(=O)N1CCSc1ccccc1 | – | inconclusive: 1.84 µM [rising, full curve, poor fit]
COc1ccc(C(=O)Nc2nc(-c3ccc([N+](=O)[O-])cc3)c(-c3ccc(OC)cc3)s2)cc1 | inactive: -3.76% | –
CCOc1cc(CNc2ccc(N3CCCCC3)cc2)cc(Br)c1OCC(=O)NC(C)(C)C | inconclusive: 13.4% | –
Cc1onc(-c2ccccc2)c1C(=O)Nc1ncc([N+](=O)[O-])s1 | inconclusive: -4.63% | –
CCCc1[nH]nc2c1C(c1ccccc1OC)C(C#N)=C(N)O2 (stereo unspecified) | inconclusive: -0.663% | –
CCOc1ccc2ccccc2c1C1NC(=O)N(C)C(C)=C1C(=O)OCCOC (stereo unspecified) | inactive: 4.73% | –
CCc1cccc(C)c1NC(=S)NCC(c1cccnc1)N(C)C (stereo unspecified) | inactive: 0.97% | –
CC1CCCC(C)N1C(=O)COC(=O)Cn1cnc2c1c(=O)n(C)c(=O)n2C (stereo unspecified) | – | inconclusive: 3.26 µM [falling, partial curve, poor fit]
Cc1ccc(S(=O)(=O)N2CCN(S(=O)(=O)c3c(C)n[nH]c3C)CC2)cc1C | inconclusive: 0.674% | –
COc1ccc(NC2CCCN(C(=O)c3cccc(N4CCNC4=O)c3)C2)cc1 (stereo unspecified) | inconclusive: 0.65% | –
COCCn1c(=O)[nH]c2cc(C(=O)NCc3ccccc3)ccc2c1=O | – | inconclusive: 29.1 µM [rising, single point]
Cc1cc(C)nc(N/N=C/c2ccccc2OCc2ccc(Cl)cc2)n1 | – | inconclusive: 29.1 µM [falling, single point]
O=C(NCCc1ccc(F)cc1)C(=O)NCC(c1cccs1)S(=O)(=O)c1ccc(Cl)cc1 (stereo unspecified) | – | inconclusive: 0.355 µM [falling, full curve, poor fit]
O=C(Cn1cc2c(n1)CCCC2)Nc1cc(-c2cccc(Cl)c2)no1 | – | inconclusive: 1.84 µM [rising, full curve, poor fit]
O=C(CSc1nnc(-c2ccccc2)c(-c2ccccc2)n1)NCCc1ccccc1 | inconclusive: 0.0323% | –

Single values from the results shown.
Under activity change, negative = inhibition, COc1ccc(CN2CCN(Cc3ccc(C(F)(F)F)cc3)CC2)cc1 shows inactive: -1.13%
Under Potency, COc1ccc(N(Cc2cc(=O)[nH]c3ccccc23)C(=O)c2ccco2)cc1 shows inconclusive: 22.4 µM [falling, single point]
